In article PMC8357632 one finds binding data, which are given here for one molecule.

This experiment concerns the target T1, Rse1 (S. cerevisiae (endogenous in yeast whole-cell extract)) (UniProt Q04693).
T1 sequence: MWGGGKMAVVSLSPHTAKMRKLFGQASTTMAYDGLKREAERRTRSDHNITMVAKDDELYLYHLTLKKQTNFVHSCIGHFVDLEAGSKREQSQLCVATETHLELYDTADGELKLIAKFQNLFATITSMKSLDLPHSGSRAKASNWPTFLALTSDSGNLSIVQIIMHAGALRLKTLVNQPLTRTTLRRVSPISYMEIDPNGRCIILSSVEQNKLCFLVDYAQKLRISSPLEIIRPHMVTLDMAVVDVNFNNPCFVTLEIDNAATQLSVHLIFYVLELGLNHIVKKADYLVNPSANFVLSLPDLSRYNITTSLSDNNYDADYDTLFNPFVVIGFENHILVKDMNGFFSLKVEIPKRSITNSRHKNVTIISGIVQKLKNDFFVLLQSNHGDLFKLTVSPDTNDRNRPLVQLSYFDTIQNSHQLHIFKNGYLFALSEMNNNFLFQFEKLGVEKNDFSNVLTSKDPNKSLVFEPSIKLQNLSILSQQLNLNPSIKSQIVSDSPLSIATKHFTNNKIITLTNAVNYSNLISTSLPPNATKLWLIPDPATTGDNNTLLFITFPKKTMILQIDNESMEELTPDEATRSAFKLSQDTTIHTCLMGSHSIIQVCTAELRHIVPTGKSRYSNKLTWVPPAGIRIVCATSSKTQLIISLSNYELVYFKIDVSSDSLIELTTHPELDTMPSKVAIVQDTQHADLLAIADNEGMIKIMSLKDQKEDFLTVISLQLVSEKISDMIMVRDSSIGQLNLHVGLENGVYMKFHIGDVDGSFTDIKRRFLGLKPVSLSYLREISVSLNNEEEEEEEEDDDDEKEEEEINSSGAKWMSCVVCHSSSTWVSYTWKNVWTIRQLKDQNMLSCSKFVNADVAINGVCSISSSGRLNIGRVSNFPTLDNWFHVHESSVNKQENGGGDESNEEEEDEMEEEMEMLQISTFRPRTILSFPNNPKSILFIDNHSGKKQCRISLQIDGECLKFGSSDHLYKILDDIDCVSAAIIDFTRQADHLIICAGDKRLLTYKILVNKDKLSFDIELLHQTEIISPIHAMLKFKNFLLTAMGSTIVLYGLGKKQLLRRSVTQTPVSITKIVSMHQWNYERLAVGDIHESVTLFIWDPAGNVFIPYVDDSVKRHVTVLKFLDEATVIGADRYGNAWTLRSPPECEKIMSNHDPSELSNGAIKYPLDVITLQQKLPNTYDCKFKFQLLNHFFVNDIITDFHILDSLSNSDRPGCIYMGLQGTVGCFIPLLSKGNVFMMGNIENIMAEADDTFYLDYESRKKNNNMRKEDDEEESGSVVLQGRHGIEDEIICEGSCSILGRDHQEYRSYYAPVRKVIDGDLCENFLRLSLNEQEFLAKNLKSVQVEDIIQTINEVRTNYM
Put plainly: cross-linking; CXMS: MS2 affinity-purified ΔBS-A pre-A complexes cross-linked with 250 μM BS3 for 1 h at 8 °C, glycerol gradient, tryptic digest, mass spectrometry, pLink 2.3.9, FDR 1% or 5%.

Results are given in words; binding and its absence hold for the method and conditions named. Binding seen in cells or lysates may run through a third protein. Some binding calls cover weakened binding; strength is not graded here.

B1: Prp5 (enzyme, UniProt P21372 1-849)
chain: METIDSKQNINRESLLEERRKKLAKWKQKKAQFDAQKEHQTSRNDIVTNSLEGKQTTEKFTERQERVKEELRKRKNEFRKSDEPVSVKPSKKKSKRSKVKKKISFDFSDDDDSEIGVSFRSKEHIQKAPEHDNEKDPLDEFMTSLKEEKMSNSKGMYDRGDILDVEDQLFELGGTDDEDVEDNTDNSNIAKIAKLKAKKRVKQIYYSPEELEPFQKNFYIESETVSSMSEMEVEELRLSLDNIKIKGTGCPKPVTKWSQLGLSTDTMVLITEKLHFGSLTPIQSQALPAIMSGRDVIGISKTGSGKTISYLLPLLRQVKAQRPLSKHETGPMGLILAPTRELALQIHEEVTKFTEADTSIRSVCCTGGSEMKKQITDLKRGTEIVVATPGRFIDILTLNDGKLLSTKRITFVVMDEADRLFDLGFEPQITQIMKTVRPDKQCVLFSATFPNKLRSFAVRVLHSPISITINSKGMVNENVKQKFRICHSEDEKFDNLVQLIHERSEFFDEVQSENDGQSSDVEEVDAKAIIFVSSQNICDFISKKLLNAGIVTCAIHAGKPYQERLMNLEKFKREKNSILLCTEVLSRGLNVPEVSLVIIYNAVKTFAQYVHTTGRTARGSRSGTAITLLLHDELSGAYILSKAMRDEEIKALDPLQAKELQEMSAKFESGMKKGKFRLSKGFGGKGLENIKSKREEAQNKDLELKKNDKRSDDLEKKISNPREGHDSVSESSALIPRLNYELFKESTDGSIIFYAKVYINDLPQIVRWEATKNTTLLFIKHETGCSITNKGKFYPEGKEPKNENDEPKLYLLIEGQDEKDIQLSIELLEQKVKEGVVKAASLSLKSTKY
B1: the binding result was “binds”.
